Values of other authors as cited in patent US20220079910A1, “Cancer Treatment Useing Docetaxel by Controlling Peak Plasma Levels” (Modra Pharmaceuticals B.V., priority 2018, published 2022).
At least one read-out could not be matched to a standard name with certainty.

Details: denominator of the printed ratio 1820/3300; cited from earlier work

## CC(=O)O[C@@]12CO[C@@H]1C[C@H](O)[C@@]1(C)C(=O)[C@H](O)C3=C(C)[C@@H](OC(=O)[C@H](O)[C@@H](NC(=O)OC(C)(C)C)c4ccccc4)C[C@@](O)([C@@H](OC(=O)c4ccccc4)[C@H]21)C3(C)C [docetaxel]
  AUC of IV docetaxel in other tumors: 3300
